Experimental data as given in publication PMC9688267.
No constants are given. Whether binding was seen depends on the method and setting. Binding seen in cells or lysates may run through a third protein. Some binding calls cover weakened binding; strength is not graded here.

The chains behind the UniProt entries cited, without tags or fusion partners. Where a name states a change or a piece, a line headed by the entry shows the natural chain unless it says otherwise.
UniProt P23819: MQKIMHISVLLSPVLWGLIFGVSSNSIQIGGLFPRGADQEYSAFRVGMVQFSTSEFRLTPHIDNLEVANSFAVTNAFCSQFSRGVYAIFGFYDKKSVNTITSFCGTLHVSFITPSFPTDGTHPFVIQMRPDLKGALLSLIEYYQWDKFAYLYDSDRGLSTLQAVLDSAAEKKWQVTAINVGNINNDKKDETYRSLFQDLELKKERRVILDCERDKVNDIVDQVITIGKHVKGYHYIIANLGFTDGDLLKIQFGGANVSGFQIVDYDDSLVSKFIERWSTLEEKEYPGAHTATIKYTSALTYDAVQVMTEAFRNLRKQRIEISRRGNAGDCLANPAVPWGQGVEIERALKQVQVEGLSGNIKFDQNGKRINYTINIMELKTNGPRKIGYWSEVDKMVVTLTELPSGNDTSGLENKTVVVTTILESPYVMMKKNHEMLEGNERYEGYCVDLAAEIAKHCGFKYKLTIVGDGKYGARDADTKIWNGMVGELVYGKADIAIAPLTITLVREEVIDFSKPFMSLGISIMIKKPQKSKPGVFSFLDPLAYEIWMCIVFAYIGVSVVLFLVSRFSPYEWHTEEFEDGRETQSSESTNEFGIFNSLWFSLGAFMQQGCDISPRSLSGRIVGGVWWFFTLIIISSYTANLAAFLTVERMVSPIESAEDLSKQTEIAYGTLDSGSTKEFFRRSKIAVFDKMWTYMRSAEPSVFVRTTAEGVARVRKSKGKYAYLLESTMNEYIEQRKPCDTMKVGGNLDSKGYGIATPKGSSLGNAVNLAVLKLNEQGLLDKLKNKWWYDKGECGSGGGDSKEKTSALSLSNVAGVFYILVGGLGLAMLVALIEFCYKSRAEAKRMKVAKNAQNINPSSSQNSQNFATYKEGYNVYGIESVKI
UniProt Q9Z2W9: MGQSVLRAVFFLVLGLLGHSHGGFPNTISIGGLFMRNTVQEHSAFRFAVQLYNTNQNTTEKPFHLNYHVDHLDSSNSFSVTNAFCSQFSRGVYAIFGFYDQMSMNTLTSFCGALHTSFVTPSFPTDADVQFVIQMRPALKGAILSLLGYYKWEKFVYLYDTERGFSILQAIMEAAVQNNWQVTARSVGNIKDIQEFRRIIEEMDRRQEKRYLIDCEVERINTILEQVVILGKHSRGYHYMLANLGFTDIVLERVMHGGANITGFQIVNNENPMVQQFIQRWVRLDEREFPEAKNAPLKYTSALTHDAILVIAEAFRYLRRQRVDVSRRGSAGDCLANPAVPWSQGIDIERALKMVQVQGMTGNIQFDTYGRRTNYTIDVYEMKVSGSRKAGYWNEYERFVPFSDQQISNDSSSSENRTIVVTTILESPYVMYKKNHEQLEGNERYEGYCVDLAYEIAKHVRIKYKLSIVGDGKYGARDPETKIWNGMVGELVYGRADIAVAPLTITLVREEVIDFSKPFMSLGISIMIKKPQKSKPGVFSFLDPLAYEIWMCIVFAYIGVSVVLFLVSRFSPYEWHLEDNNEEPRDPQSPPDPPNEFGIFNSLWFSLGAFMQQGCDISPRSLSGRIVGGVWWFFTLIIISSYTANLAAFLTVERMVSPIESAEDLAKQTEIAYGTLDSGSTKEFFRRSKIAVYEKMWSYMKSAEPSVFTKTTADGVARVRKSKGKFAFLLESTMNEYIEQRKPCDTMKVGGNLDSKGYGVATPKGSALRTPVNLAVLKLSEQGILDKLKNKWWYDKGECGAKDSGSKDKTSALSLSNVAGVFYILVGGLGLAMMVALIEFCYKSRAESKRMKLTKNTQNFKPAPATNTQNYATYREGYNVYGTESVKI

Biological target: GluA2/3 receptor (AMPA receptor heterotetramer of GluA2 and GluA3) (mouse (endogenous in hippocampus)) (UniProt P23819+Q9Z2W9)
Experiment: co-IP; anti-GluA2/3 IP (10 µg) from wildtype hippocampus synaptic extract after prior depletion of GluA1-containing receptors with 33 µg GluA1-specific antibody (IP+); immunoblot; n = 3

- binding: binds
B1: Cornichon homolog 2 (protein, UniProt O35089 1-160)
chain: MAFTFAAFCYMLTLVLCASLIFFVIWHIIAFDELRTDFKNPIDQGNPARARERLKNIERICCLLRKLVVPEYSIHGLFCLMFLCAAEWVTLGLNIPLLFYHLWRYFHRPADGSEVMYDAVSIMNADILNYCQKESWCKLAFYLLSFFYYLYSMVYTLVSF
